Among the data in article PMC3506659, “Snm1B Interacts with PSF2” (PLoS ONE, 2012) are binding values, retold here.

These are yes or no findings as the source states them, for the method shown. In cells and extracts the contact can be indirect. Some entries that bind do so weakly or less than the wild type. Sequences can lack the tags named with a protein.

Test [1] concerns the target T1, N-terminal Myc epitope-tagged human PSF2 (Myc-PSF2) (human) (UniProt Q9Y248).
T1 sequence: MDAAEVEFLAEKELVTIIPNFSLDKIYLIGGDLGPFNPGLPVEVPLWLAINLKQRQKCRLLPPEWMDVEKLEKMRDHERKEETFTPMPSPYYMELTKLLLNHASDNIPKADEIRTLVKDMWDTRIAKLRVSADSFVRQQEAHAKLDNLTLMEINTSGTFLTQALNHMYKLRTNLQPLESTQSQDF
Kind of test: co-IP; 293T transiently co-transfected with Myc-PSF2 and HA-Mus81, with or without Flag-Snm1B; RIPA lysate, Myc-PSF2 immunoprecipitated with anti-Myc antibody and GammaBind G Sepharose, immunoblot anti-Flag or anti-Mus81.

The target of test [2] is T1, N-terminal Myc epitope-tagged human PSF2 (Myc-PSF2) (human). Kind of test: condition: only without ectopic HA-Mus81 (anti-Myc immunoprecipitation); co-IP; 293T transiently co-transfected with Flag-Snm1B and Myc-PSF2 without ectopic HA-Mus81; RIPA lysate, Myc-PSF2 immunoprecipitated with anti-Myc antibody, immunoblot anti-Flag.
Test [3] deals with T2, GFP-Flag-Snm1B^413–532 (human) (UniProt Q9H816).
T2 sequence: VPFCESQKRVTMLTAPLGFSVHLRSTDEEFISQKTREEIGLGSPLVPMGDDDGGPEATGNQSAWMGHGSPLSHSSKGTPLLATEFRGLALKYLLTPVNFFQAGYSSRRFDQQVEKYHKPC
As to the kind of experiment: co-IP; 293T transiently co-transfected, RIPA lysate, GFP-Flag-Snm1B fragments immunoprecipitated with anti-GFP antibody and GammaBind G Sepharose, immunoblot anti-Myc.

Test [4] addresses T3, GFP-Flag-Snm1B^79–532 (human) (UniProt Q9H816).
T3 sequence: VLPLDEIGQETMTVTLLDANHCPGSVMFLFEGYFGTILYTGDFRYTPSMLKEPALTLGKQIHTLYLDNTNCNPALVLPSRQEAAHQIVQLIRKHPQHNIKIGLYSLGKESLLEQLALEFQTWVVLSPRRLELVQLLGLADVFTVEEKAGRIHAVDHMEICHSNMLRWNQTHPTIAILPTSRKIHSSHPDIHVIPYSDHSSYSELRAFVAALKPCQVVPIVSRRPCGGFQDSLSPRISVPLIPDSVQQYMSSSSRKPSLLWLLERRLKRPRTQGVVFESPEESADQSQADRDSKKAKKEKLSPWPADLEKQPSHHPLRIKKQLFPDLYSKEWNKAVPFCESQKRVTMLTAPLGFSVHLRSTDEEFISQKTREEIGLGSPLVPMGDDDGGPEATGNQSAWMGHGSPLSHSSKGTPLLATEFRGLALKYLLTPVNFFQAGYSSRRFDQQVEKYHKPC
Described as above.

The target of test [5] is T4, N-terminal Flag epitope-tagged human Snm1B (Flag-Snm1B) (human) (UniProt Q9H816).
T4 sequence: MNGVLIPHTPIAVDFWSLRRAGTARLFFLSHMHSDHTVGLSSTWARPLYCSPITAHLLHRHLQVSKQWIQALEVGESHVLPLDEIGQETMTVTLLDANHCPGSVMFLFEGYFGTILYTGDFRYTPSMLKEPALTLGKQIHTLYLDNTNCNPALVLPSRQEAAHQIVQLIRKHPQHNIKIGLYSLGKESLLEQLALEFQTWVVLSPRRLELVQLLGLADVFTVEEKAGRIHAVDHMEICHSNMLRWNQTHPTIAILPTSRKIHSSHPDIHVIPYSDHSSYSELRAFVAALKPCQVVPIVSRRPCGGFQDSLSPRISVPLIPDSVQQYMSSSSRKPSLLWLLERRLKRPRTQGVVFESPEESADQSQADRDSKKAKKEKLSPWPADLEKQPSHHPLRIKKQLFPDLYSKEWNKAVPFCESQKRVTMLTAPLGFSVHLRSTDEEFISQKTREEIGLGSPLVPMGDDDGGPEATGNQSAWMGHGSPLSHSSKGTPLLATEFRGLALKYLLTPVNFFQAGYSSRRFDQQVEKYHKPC
Kind of test: co-IP; competition: 293T co-transfected with Flag-Snm1B (WT or N2), Myc-PSF2 and/or Myc-TRF2 (WT or F120A); RIPA lysate, anti-Flag immunoprecipitation, immunoblot anti-Myc; Myc-PSF2:Flag-Snm1B ratio by ImageJ.

Another test deals with T5, Flag-Snm1B^1–494 (human) (UniProt Q9H816).
T5 sequence: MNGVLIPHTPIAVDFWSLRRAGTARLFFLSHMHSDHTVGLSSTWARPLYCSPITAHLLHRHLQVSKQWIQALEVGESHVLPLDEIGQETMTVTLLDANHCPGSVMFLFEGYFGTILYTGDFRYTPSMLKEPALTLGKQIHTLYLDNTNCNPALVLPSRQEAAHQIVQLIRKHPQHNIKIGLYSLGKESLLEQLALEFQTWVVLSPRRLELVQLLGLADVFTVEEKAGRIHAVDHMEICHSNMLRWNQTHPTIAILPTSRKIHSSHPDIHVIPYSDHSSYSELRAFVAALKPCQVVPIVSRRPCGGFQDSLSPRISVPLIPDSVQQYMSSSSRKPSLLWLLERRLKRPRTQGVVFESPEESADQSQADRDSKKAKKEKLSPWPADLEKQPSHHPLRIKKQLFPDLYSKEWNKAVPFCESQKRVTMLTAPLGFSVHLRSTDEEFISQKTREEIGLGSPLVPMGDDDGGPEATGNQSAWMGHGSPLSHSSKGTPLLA
As to the kind of experiment: co-IP; 293T transiently co-transfected, RIPA lysate, Flag-Snm1B immunoprecipitated with anti-Flag M2 affinity gel at 4°C overnight, immunoblot for Myc-PSF2 or Mus81; with or without co-expressed Myc-PSF2 or HA-Mus81.

Test [6] addresses T4, N-terminal Flag epitope-tagged human Snm1B (Flag-Snm1B) (human). Described as above.
A further test addresses T6, Flag-Snm1B^Δ222–363 (human, UniProt Q9H816 1-221; Q9H816 364-532).
T6 construct: RGR is my translation read in frame from its first base; source: 293T, transiently transfected (pLPC), in lysate; not shown: Flag, N-terminal, kept
T6 chain: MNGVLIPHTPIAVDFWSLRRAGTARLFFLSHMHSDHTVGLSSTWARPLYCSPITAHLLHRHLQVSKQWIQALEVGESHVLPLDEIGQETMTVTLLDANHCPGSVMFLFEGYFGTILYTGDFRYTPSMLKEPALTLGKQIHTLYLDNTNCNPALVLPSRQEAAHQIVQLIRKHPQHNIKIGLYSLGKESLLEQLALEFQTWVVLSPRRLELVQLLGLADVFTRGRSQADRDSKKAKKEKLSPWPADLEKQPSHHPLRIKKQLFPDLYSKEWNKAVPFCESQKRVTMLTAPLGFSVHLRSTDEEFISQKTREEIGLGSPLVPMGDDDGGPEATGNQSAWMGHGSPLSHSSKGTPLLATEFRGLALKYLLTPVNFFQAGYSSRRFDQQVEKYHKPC
The test is described as above.

B1: N-terminal Flag epitope-tagged human Snm1B (Flag-Snm1B) (protein, UniProt Q9H816 1-532)
chain: T4 sequence
B1: the figures for the binding entry in test [1] and in test [2] were “binds” and “no binding”, respectively.

B2: N-terminal Myc epitope-tagged human PSF2 (Myc-PSF2) (natural protein, UniProt Q9Y248 1-185, looked up)
chain: T1 sequence
notes: PSF2, subunit of the GINS complex, human, full length; amplified from clone MGC-673 (ATCC); source: 293T, transiently transfected (pCMV-MYC), in lysate; not shown: Myc, N-terminal, kept
B2: the binding result in test [3] is recorded as “binds weakly”; in test [4], “binds”; in test [5], “binds”; with Flag-Snm1B^1–494 (human), “binds”; in test [6], “binds”.

B3: HA epitope-tagged Mus81 (HA-Mus81) (natural protein, UniProt Q96NY9 1-551, looked up)
chain: MAAPVRLGRKRPLPACPNPLFVRWLTEWRDEATRSRRRTRFVFQKALRSLRRYPLPLRSGKEAKILQHFGDGLCRMLDERLQRHRTSGGDHAPDSPSGENSPAPQGRLAEVQDSSMPVPAQPKAGGSGSYWPARHSGARVILLVLYREHLNPNGHHFLTKEELLQRCAQKSPRVAPGSARPWPALRSLLHRNLVLRTHQPARYSLTPEGLELAQKLAESEGLSLLNVGIGPKEPPGEETAVPGAASAELASEAGVQQQPLELRPGEYRVLLCVDIGETRGGGHRPELLRELQRLHVTHTVRKLHVGDFVWVAQETNPRDPANPGELVLDHIVERKRLDDLCSSIIDGRFREQKFRLKRCGLERRVYLVEEHGSVHNLSLPESTLLQAVTNTQVIDGFFVKRTADIKESAAYLALLTRGLQRLYQGHTLRSRPWGTPGNPESGAMTSPNPLCSLLTFSDFNAGAIKNKAQSVREVFARQLMQVRGVSGEKAAALVDRYSTPASLLAAYDACATPKEQETLLSTIKCGRLQRNLGPALSRTLSQLYCSYGPLT
notes: Mus81, subunit of the Mus81/Eme1 endonuclease; amplified from clone MGC:14953 (Imagenes); Detected with an anti-Mus81 antibody, which may also see the endogenous Mus81 of 293T cells; source: 293T, transiently transfected (pcDNA3), in lysate; not shown: HA, N-terminal, kept
On to B3, for which the binding entry (with Flag-Snm1B^1–494 (human); in test [6]; with Flag-Snm1B^Δ222–363; in test [1]) was “binds” in each case.
